Reference: patent US20240390508A1, “HUMAN TRANSFERRIN RECEPTOR BINDING PEPTIDE-DRUG CONJUGATE” (priority 2021, published 2024)
For at least one compound, name, drawing or mass did not settle the structure.

By UniProt entry, the sequences of proteins in these tests, tags left out.
UniProt P02786, whole entry: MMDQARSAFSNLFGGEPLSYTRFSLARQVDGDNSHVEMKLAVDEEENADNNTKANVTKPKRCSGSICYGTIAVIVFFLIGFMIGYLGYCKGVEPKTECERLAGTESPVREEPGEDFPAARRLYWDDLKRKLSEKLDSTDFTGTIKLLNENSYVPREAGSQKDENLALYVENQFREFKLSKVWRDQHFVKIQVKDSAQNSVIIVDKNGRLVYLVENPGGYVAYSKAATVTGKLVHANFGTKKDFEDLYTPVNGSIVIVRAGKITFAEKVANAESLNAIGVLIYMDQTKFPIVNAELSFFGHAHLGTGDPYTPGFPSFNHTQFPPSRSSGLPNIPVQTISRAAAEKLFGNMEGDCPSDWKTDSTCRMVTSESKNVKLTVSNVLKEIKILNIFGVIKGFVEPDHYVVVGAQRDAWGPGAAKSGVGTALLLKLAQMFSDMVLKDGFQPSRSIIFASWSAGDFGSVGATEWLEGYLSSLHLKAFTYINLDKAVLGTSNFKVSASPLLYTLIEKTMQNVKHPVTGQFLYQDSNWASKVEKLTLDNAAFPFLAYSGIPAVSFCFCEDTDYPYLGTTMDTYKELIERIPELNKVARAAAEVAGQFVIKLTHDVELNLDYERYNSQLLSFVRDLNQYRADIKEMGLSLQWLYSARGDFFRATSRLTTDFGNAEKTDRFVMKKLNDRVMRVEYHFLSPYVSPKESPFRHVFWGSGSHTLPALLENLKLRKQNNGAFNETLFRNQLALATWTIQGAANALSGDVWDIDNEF

Target: transferrin receptor (hTfR) (Homo sapiens, UniProt P02786)
Experiment: Intermolecular interaction evaluation test between transferrin receptor (hTfR) and peptide-nucleic acid conjugate using surface plasmon resonance (SPR)
Type: binding
Conditions: KD value to hTfR by SPR, Biacore T200, Single Cycle Kinetics, hTfR immobilized on NTA sensor chip

| SMILES | Kd [nM] |
| --- | --- |
| CC[C@H](C)[C@@H]1NC(=O)[C@H](Cc2ccc(O)cc2)NC(=O)[C@H](Cc2ccc(O)cc2)NC(=O)[C@H](CC(N)=O)NC(=O)[C@H](Cc2c[nH]c3ccccc23)NC(=O)[C@H](C(C)C)NC(=O)[C@H](Cc2ccccc2)N(C)C(=O)[C@H](C(C)C)NC(=O)[C@H](C)NC(=O)CSC[C@@H](C(=O)NCC(=O)N[C@@H](CCCCn2nnc3c2CCC2C(CC3)C2COC(=O)NCCCCCCOP(=O)(O)OC[C@H]2O[C@@H](n3ccc(N)nc3=O)[C@H](OC)[C@@H]2OP(=O)(S)OC[C@H]2O[C@@H](n3cnc4c(N)ncnc43)[C@H](OC)[C@@H]2OP(=O)(S)OC[C@H]2O[C@@H](n3cnc4c(=O)[nH]c(N)nc43)[C@H](OC)[C@@H]2OP(=O)(S)OC[C@H]2O[C@@H](n3cnc4c(N)ncnc43)[C@H](O)[C@@H]2OP(=O)(O)OC[C@H]2O[C@@H](n3cnc4c(N)ncnc43)[C@H](O)[C@@H]2OP(=O)(O)OC[C@H]2O[C@@H](n3ccc(N)nc3=O)[C@H](OC)[C@@H]2OP(=O)(O)OC[C@H]2O[C@@H](n3ccc(N)nc3=O)[C@H](OC)[C@@H]2OP(=O)(O)OC[C@H]2O[C@@H](n3cnc4c(=O)[nH]c(N)nc43)[C@H](O)[C@@H]2OP(=O)(O)OC[C@H]2O[C@@H](n3cnc4c(=O)[nH]c(N)nc43)[C@H](O)[C@@H]2OP(=O)(O)OC[C@H]2O[C@@H](n3cnc4c(N)ncnc43)[C@H](O)[C@@H]2OP(=O)(O)OC[C@H]2O[C@@H](n3cnc4c(=O)[nH]c(N)nc43)[C@H](O)[C@@H]2OP(=O)(O)OC[C@H]2O[C@@H](n3cnc4c(=O)[nH]c(N)nc43)[C@H](O)[C@@H]2OP(=O)(O)OC[C@H]2O[C@@H](n3ccc(N)nc3=O)[C@H](OC)[C@@H]2OP(=O)(S)OC[C@H]2O[C@@H](n3cnc4c(N)ncnc43)[C@H](OC)[C@@H]2OP(=O)(S)OC[C@H]2O[C@@H](n3cnc4c(N)ncnc43)[C@H](OC)[C@@H]2OP(=O)(S)OC[C@H]2O[C@@H](n3ccc(N)nc3=O)[C@H](OC)[C@@H]2O)C(N)=O)NC(=O)[C@H](Cc2ccc(O)cc2)N(C)C(=O)[C@H](Cc2ccc(O)cc2)NC(=O)[C@H](CCCNC(=N)N)NC(=O)[C@H](CCCNC(=N)N)NC(=O)[C@H]([C@@H](C)CC)NC1=O (stereo partly drawn) [Example 21] | < 100 |
| CC[C@H](C)[C@@H]1NC(=O)[C@H](Cc2ccc(O)cc2)NC(=O)[C@H](Cc2ccc(O)cc2)NC(=O)[C@H](CC(N)=O)NC(=O)[C@H](Cc2c[nH]c3ccccc23)NC(=O)[C@H](C(C)C)NC(=O)[C@H](Cc2ccccc2)N(C)C(=O)[C@H](C(C)C)NC(=O)[C@H](C)NC(=O)CSC[C@@H](C(=O)NCC(=O)N[C@@H](CCCCn2nnc3c2CCC2C(CC3)C2COC(=O)NCCCCCCOP(=O)(O)OC[C@H]2O[C@@H](n3cnc4c(=O)[nH]c(N)nc43)[C@H](OC)[C@@H]2OP(=O)(S)OC[C@H]2O[C@@H](n3cnc4c(N)ncnc43)[C@H](OC)[C@@H]2OP(=O)(S)OC[C@H]2O[C@@H](n3cnc4c(N)ncnc43)[C@H](OC)[C@@H]2OP(=O)(S)OC[C@H]2O[C@@H](n3ccc(N)nc3=O)[C@H](OC)[C@@H]2OP(=O)(O)OC[C@H]2O[C@@H](n3cnc4c(N)ncnc43)C[C@@H]2OP(=O)(O)OC[C@H]2O[C@@H](n3ccc(N)nc3=O)[C@H](OC)[C@@H]2OP(=O)(O)OC[C@H]2O[C@@H](n3ccc(N)nc3=O)[C@H](OC)[C@@H]2OP(=O)(O)OC[C@H]2O[C@@H](n3ccc(=O)[nH]c3=O)[C@H](OC)[C@@H]2OP(=O)(O)OC[C@H]2O[C@@H](n3ccc(=O)[nH]c3=O)[C@H](OC)[C@@H]2OP(=O)(O)OC[C@H]2O[C@@H](n3ccc(N)nc3=O)[C@H](OC)[C@@H]2OP(=O)(O)OC[C@H]2O[C@@H](n3cnc4c(N)ncnc43)C[C@@H]2OP(=O)(O)OC[C@H]2O[C@@H](n3cnc4c(=O)[nH]c(N)nc43)C[C@@H]2OP(=O)(O)OC[C@H]2O[C@@H](n3cnc4c(N)ncnc43)C[C@@H]2OP(=O)(S)OC[C@H]2O[C@@H](n3cnc4c(N)ncnc43)[C@H](OC)[C@@H]2OP(=O)(S)OC[C@H]2O[C@@H](n3ccc(N)nc3=O)[C@H](OC)[C@@H]2OP(=O)(S)OC[C@H]2O[C@@H](n3ccc(N)nc3=O)[C@H](OC)[C@@H]2O)C(N)=O)NC(=O)[C@H](Cc2ccc(O)cc2)N(C)C(=O)[C@H](Cc2ccc(O)cc2)NC(=O)[C@H](CCCNC(=N)N)NC(=O)[C@H](CCCNC(=N)N)NC(=O)[C@H]([C@@H](C)CC)NC1=O (stereo partly drawn) [Example 26] | < 100 |
| CC[C@H](C)[C@@H]1NC(=O)[C@H](Cc2ccc(O)cc2)NC(=O)[C@H](Cc2ccc(O)cc2)NC(=O)[C@H](CC(N)=O)NC(=O)[C@H](Cc2c[nH]c3ccccc23)NC(=O)[C@H](C(C)C)NC(=O)[C@H](Cc2ccccc2)N(C)C(=O)[C@H](C(C)C)NC(=O)[C@H](C)NC(=O)CSC[C@@H](C(=O)NCC(=O)N[C@@H](CCCCn2nnc3c2CCC2C(CC3)C2COC(=O)NCCCCCCOP(=O)(O)OC[C@H]2O[C@@H](n3cnc4c(=O)[nH]c(N)nc43)[C@H](OC)[C@@H]2OP(=O)(S)OC[C@H]2O[C@@H](n3cnc4c(N)ncnc43)[C@H](OC)[C@@H]2OP(=O)(S)OC[C@H]2O[C@@H](n3cnc4c(N)ncnc43)[C@H](OC)[C@@H]2OP(=O)(S)OC[C@H]2O[C@@H](n3ccc(N)nc3=O)C[C@@H]2OP(=O)(O)OC[C@H]2O[C@@H](n3cnc4c(N)ncnc43)[C@H](O)[C@@H]2OP(=O)(O)OC[C@H]2O[C@@H](n3ccc(N)nc3=O)C[C@@H]2OP(=O)(O)OC[C@H]2O[C@@H](n3ccc(N)nc3=O)[C@H](O)[C@@H]2OP(=O)(O)OC[C@H]2O[C@@H](n3cc(C)c(=O)[nH]c3=O)C[C@@H]2OP(=O)(O)OC[C@H]2O[C@@H](n3ccc(=O)[nH]c3=O)[C@H](O)[C@@H]2OP(=O)(O)OC[C@H]2O[C@@H](n3ccc(N)nc3=O)C[C@@H]2OP(=O)(O)OC[C@H]2O[C@@H](n3cnc4c(N)ncnc43)C[C@@H]2OP(=O)(O)OC[C@H]2O[C@@H](n3cnc4c(=O)[nH]c(N)nc43)C[C@@H]2OP(=O)(O)OC[C@H]2O[C@@H](n3cnc4c(N)ncnc43)C[C@@H]2OP(=O)(S)OC[C@H]2O[C@@H](n3cnc4c(N)ncnc43)[C@H](OC)[C@@H]2OP(=O)(S)OC[C@H]2O[C@@H](n3ccc(N)nc3=O)[C@H](OC)[C@@H]2OP(=O)(S)OC[C@H]2O[C@@H](n3ccc(N)nc3=O)[C@H](OC)[C@@H]2O)C(N)=O)NC(=O)[C@H](Cc2ccc(O)cc2)N(C)C(=O)[C@H](Cc2ccc(O)cc2)NC(=O)[C@H](CCCNC(=N)N)NC(=O)[C@H](CCCNC(=N)N)NC(=O)[C@H]([C@@H](C)CC)NC1=O (stereo partly drawn) [Example 27] | < 100 |
